Reference: the supplement of paper PMC12889115
Some of the results follow. These are raw signals, not scaled to a control.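 First-pass screen: polymyxin B was added at a level that permeabilizes the Salmonella outer membrane while sparing the inner membrane. DMSO wells, with and without polymyxin B, defined maximum growth. Because plates differed from one another, each plate's data were ranked separately and the compounds with the lowest OD600 were carried forward as hits.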

Test system: Salmonella enterica serovar Typhimurium SL1344
Assay: bacterial growth OD600 after 18 h with compound and polymyxin B; higher = more bacterial growth (less inhibition)
Details: 50 µM, Mueller-Hinton broth

Row | SMILES | bacterial growth OD600 (polymyxin B 1 µg/mL) | bacterial growth OD600 (polymyxin B 0.75 µg/mL)
1 | CCOC(=O)C1(Cc2ccc(Cl)cc2)CCN(Cc2ccc(OC)c(O)c2)CC1 | 1.03 | 
2 | CC(C)CCCC1CN(C(=O)CCc2ccncc2)CCO1 (stereo not drawn) | 0.937 | 
3 | COCCCN1C(=O)CC(CC(=O)NCCc2ccccc2OC)(c2ccccc2)C1=O (stereo not drawn) |  | 0.75
4 | CN(CC1(c2ccccc2)CC1(C)C)C(=O)CCC1(Cc2ccc(F)cc2)CCC(=O)N1 (stereo not drawn) |  | 0.576
5 | Cc1nc(N2CCC(C(=O)NCCCOC(C)C)CC2)nc2cc(S(C)(=O)=O)ccc12 |  | 0.93
6 | COCCO[C@H]1[C@H](NC(=O)C(C)C)c2ccccc2C12CCN(Cc1c(C)nn(C)c1Cl)CC2 |  | 0.877
7 | CN(CC1CCN(CCc2ccc(F)cc2)CC1)C1CCN(Cc2cccnc2)CC1 | 1.14 | 
8 | O=C(CCc1cnccn1)NC1CC(=O)N(Cc2cccc3ccccc23)C1 (stereo not drawn) | 0.801 | 
